Some of the results follow.
B1: il10ra_site1_normal_mot_HHH_b2_07488_000000216_0001_1_17_H_._HHH_b1_03361_0001_0000300038_0000001_0_af2pred_0001 (protein)
chain: SSSSSKLKELVELALRFIQRLIEEGDEEAAKFMLKAARELAEDLNDEELQEEIERLEEELNSSSS
B2: il10ra_site1_sap_12_mot_HHH_b1_06816_000000239_0001_1_19_H_._HHH_b2_06625_0001_0000400017_0000001_0_0001_af2pred_0001 (protein)
chain: SSSSSDAQREIQRLLRRAFELLEDGDPEEAEEVLREAEELAREANDELLERLVELLKRQINSSSS
B3: il10ra_site1_normal_mot_HHH_b2_04327_000000030_0001_41_55_H_._HHH_b2_04747_af2_0001_0000200010_0000002_0 (protein)
chain: SSSSSSDLEERLEELLEELEKAKTLEEIARIVIEAVRIATRLRDDELFEELWKLARKLFSSSSSS
B4: il10ra_site1_sap_23_mot_HHH_b2_01705_af2_000000069_0001_44_57_H_._HHH_b1_00774_0001_0000100006_0000002_0_0001_af2pred_0001 (protein)
chain: SSSSTAFERIVELAIAAAELLIKAGDPEKARRAIEIAERNVERLGNEELLRKLEEVEEELNSSSS
B5: il10ra_site1_sap_15_mot_HHH_b1_08125_af2_000000160_0001_1_19_H_._HHH_b1_04040_0001_0000100003_0000002_0_0001_af2pred_0001 (protein)
chain: SSSSSSQEETEARAILFFAKFSSNPDARRLALEMALEIARRLGDEELEEEIERLLEEINSSSSSS
B6: il10ra_site1_normal_mot_HHH_b1_04100_af2_000000180_0001_1_19_H_._HHH_b2_04370_0001_0000100007_0000002_0_af2pred_0001 (protein)
chain: SSSSDDAERSLRRLLEAIRYALEQGDEEIAKLALSSARHLAEYLGDEEALEELEEILKKLSSSSS
B7: il10ra_site1_sap_21_mot_HHH_b1_05522_af2_000000086_0001_1_15_H_._1fb36719620bfed6e915f7538ef129cd_0001_af2_0001_0000400011_0000001_0_0001 (protein)
chain: SSSSSSVEELAEEAEQLARERGDEEALELVEAIERLMKQGILDPEWAEMSLKALIRILQESSSSS
B8: il10ra_site1_sap_19_mot_HHH_b2_00856_af2_000000075_0001_1_20_H_._HHH_b2_05867_0001_0000200023_0000002_0_0001_af2pred_0001 (protein)
chain: SSSSSSTEEEIREIVRELAEEFGLDEEVIRAVIIAAKRNGASERQIELIIRFLAMARESSSSSSS
B9: il10ra_site1_sap_21_mot_ems_4hM_4976_0002_af2_000000176_0001_48_63_H_._d30c92881be5d2f229e465dffc40e224_0001_af2_0001_0001100022_0000001_0_0001 (protein)
chain: SSSSDLEEEVEELLEELKQAKSREEFARLALEVLRVAIQSNDPELLEEVWEVIKRVAERLSSSSS
B10: il10ra_site1_normal_mot_HHH_b1_05021_af2_000000167_0001_42_56_H_._HHH_b1_07521_af2_0001_0000100005_0000001_0_af2pred_0001 (protein)
chain: SSSSSEEARRIIELIRKAIKLEVEENNPEEAEEVLREAEELARENGDELLLFLVERLLELLSSSS
B11: il10ra_site1_normal_mot_HHH_b2_03220_af2_000000223_0001_23_40_H_._HHH_b2_06254_0001_0000100011_0000001_0 (protein)
chain: SSSSSNEEVWELIREALELLANGNPEEAREVLEEARELAEELNNFAARFAIRQLERAVESSSSSS
B12: il10ra_site1_normal_mot_HHH_b2_07569_000000265_0001_38_56_H_._HHH_b1_08651_af2_0001_0000100005_0000002_0 (protein)
chain: SSSSSSDAAELAAEALRLAFRLGDEEAVQEIWELFRRYFEEGDPRYEEALEELIEELRSSSSSSS
B13: il10ra_site1_sap_27_mot_HHH_b2_02053_af2_000000006_0001_3_19_H_._HHH_b1_05377_0001_0000200016_0000001_0_0001 (protein)
chain: SSSSSSDEEEELKELLEELQKSPDPEERLELALRIIELAFQVGDEEVLRELWRLVKELSSSSSSS
B14: il10ra_site1_sap_17_mot_HHH_b2_00479_000000091_0001_1_12_H_._HHH_b2_00819_0001_0000100002_0000001_0_0001 (protein)
chain: SSSSSDENRQLYRLSREALELLRRGNPEEAEKILEEAIELAEEAGNRLMLHNLRFILKDVRSSSS
B15: il10ra_site1_sap_20_mot_HHH_b2_02463_af2_000000222_0001_1_19_H_._HHH_b1_01108_0001_0000200012_0000001_0_0001_af2pred_0001 (protein)
chain: SSSSSSEEIAELIREALELDRKGNPEEAQKLLEEAEKLAEEANNLVLRIAVEKALKNLEGSSSSS
B16: il10ra_site1_normal_mot_8756ee2cf497b5429c717dfc0c0bcfd6_0001_000000186_0001_1_13_H_._HHH_b2_04770_af2_0001_0000500021_0000001_0 (protein)
chain: SSSSSTHEVLERVIELIRRAAQITDEEELKEVLEEAQELAEELGNDVLRVQVEYLLRSLTSSSSS
B17: il10ra_site1_normal_mot_HHH_b1_06994_000000193_0001_40_55_H_._HHH_b2_01485_0001_0000100004_0000001_0 (protein)
chain: SSSSDEEELLEAVERLIEQAIKNGDPRAARFLVIALKILARDNNDPEAEEEAERLEELVEKSSSS
B18: il10ra_site1_sap_15_mot_HHH_b2_03038_000000109_0001_1_20_H_._HHH_b2_05569_0001_0000400030_0000002_0_0001 (protein)
chain: DEELVELARLLLEGDPRAAMELIHLYALIHQGDPEAERELEEAIKLAEELGDEDVVIILRALLEQ
B19: il10ra_site1_normal_mot_HHH_b2_08186_000000021_0001_43_56_H_._HHH_b2_01697_0001_0000200003_0000002_0 (protein)
chain: SSSSSSEEEEVREEVEELLERAQRVDREEAFRLLQEALRLAFEVSDPELLRAIWEVLRELSSSSS
B20: il10ra_site1_normal_mot_HHH_b1_04065_000000255_0001_41_56_H_._HHH_b1_08168_0001_0000100006_0000001_0 (protein)
chain: SSSSSEEEELEELLEQLEELARRGDERKFVELFVRVSRLALRARDEEIVRLLDRLAIEFYSSSSS
B21: il10ra_site1_normal_mot_HHH_b1_05357_000000034_0001_23_39_H_._HHH_b2_03643_0002_0000100007_0000001_0_af2pred_0001 (protein)
chain: SSSSSEEEELEKRLEEEIRRLIEEGNPEKARELIRELARLAAELKDKELAHLVIRLFALLDSSSS
B22: il10ra_site1_normal_mot_HHH_b2_03183_af2_000000055_0001_40_56_H_._ems_3hM_2680_0001_0000500016_0000002_0 (protein)
chain: SSDEKQKEAEELARAAARLVEQATDEKTKRALLLAIELLLRLADDEELRKILEEILEEAEELSSS
B23: il10ra_site1_normal_mot_HHH_b2_06497_000000202_0001_1_20_H_._HHH_b2_07580_0001_0000200006_0000001_0_af2pred_0001 (protein)
chain: SSSSSSSLNERARELLEEALKIEDEEEREEVLEEAKHLAEEGNNLILRIAIEFVAKDKSSSSSSS
B24: il10ra_site1_normal_mot_HHH_b1_05099_000000057_0001_40_58_H_._HHH_b1_00405_0001_0000200010_0000001_0 (protein)
chain: SSSSDEEEIEEIVEFAEEVAKEIPDEERRRALEAQARFVERLGDRDAAENLRRIAEAFLKSSSSS
B25: il10ra_site1_normal_mot_HHH_b1_00999_000000080_0001_41_55_H_._HHH_b2_05773_0001_0000500024_0000002_0 (protein)
chain: SSSSSSEEEERVKELNEEAEQITDPREFFEVLLEALRLAYELKNAELLREIWEIVQKFGSSSSSS
B26: il10ra_site1_normal_mot_HHH_b1_06994_000000193_0001_40_55_H_._HHH_b2_01218_0001_0000700034_0000002_0 (protein)
chain: SSSSSSNEEIAVELLLLAAKKIEDPELRRATLRLAEQIAKELGDEELKRLIEEVEEELSSSSSSS
B27: il10ra_site1_normal_mot_b26a303360aa2756ef5b79665ce52f45_0001_000000179_0001_1_11_H_._HHH_b1_08300_0001_0000100007_0000001_0_af2pred_0001 (protein)
chain: SSSSSKVEELVELIRKALELLRNGNPEEAQEVLEEAIKLAEEANNPVARVILELLFKQVNSSSSS
B28: il10ra_site1_normal_mot_HHH_b1_05088_af2_000000046_0001_20_36_H_._HHH_b2_02810_0001_0000400026_0000001_0 (protein)
chain: SSSSDEEVEEEVERLLEEAKQIEDAEEAYKALRKAIELAAENQDRELAELIMRVIQEWLNSSSSS
B29: il10ra_site1_normal_mot_HHH_b1_06837_000000150_0001_20_37_H_._HHH_b1_07718_0001_0000100001_0000002_0 (protein)
chain: SSSSSREISRRVYELLRRASELDLEGDPEEARELLEEAHELAEEGNNENALHNVEFLLRLASSSS
B30: il10ra_site1_sap_22_mot_HHH_b1_02665_000000293_0001_1_18_H_._5450ce7872ebe41ebd4d2ec004e2dcf6_0001_af2_0001_0000100001_0000001_1_0001 (protein)
chain: SSSSDEEKEALKLAAEALRAAYQKSDEEALQLLWRLIHALAREGDPELVEELEELAERIINSSSS
B31: il10ra_site1_normal_mot_HHH_b2_07579_000000275_0001_1_19_H_._HHH_b1_02421_0001_0000100004_0000001_0 (protein)
chain: SSSSSEEVQEVMEILREVAELLNNGDREEAERLAEEALRLAEEANNPVLRFAAEHLLRDVGSSSS
B32: il10ra_site1_normal_mot_HHH_b1_07835_af2_000000063_0001_1_16_H_._HHH_b1_06060_af2_0001_0000600040_0000001_0 (protein)
chain: SSSSSEEVQELLEELEELLEKNDEERFAQLFARIARRVYELRDEEAAEILIRLAAEFLELRSSSS
B33: il10ra_site1_sap_21_mot_HHH_b2_03328_af2_000000127_0001_1_19_H_._HHH_b2_05051_0001_0000300026_0000002_0_0001_af2pred_0001 (protein)
chain: SSSSSDEERLELALRIIEWAIEVGDEEAARFLIRAARELAERLGNEEILERLEELLERLNSSSSS
B34: il10ra_site1_normal_mot_8756ee2cf497b5429c717dfc0c0bcfd6_0001_000000186_0001_1_13_H_._HHH_b2_00413_0001_0000300015_0000001_0_af2pred_0001 (protein)
chain: SSSSSSDEVVRRVKELIEEALHIDDEEEAREVLEEALELAEEGNNAVLRAVLKYLLELLNSSSSS
B35: il10ra_site1_sap_15_mot_HHH_b2_00943_af2_000000149_0001_1_17_H_._HHH_b1_02213_af2_0001_0000400008_0000001_0_0001_af2pred_0001 (protein)
chain: SSSSDEEERRIEELEEEIERLRREGDRERLIRLLYEAFKIAVELDDEEALEFILRILRELLSSSS
B36: il10ra_site1_normal_mot_HHH_b2_07535_000000205_0001_20_36_H_._HHH_b1_08712_0001_0000100008_0000003_0 (protein)
chain: SSSSSSEEEEVRELLEEAERIPDPEERKRLLARAAYAAARAGDEELWQLVMEVYFRLSNSSSSSS
B37: il10ra_site1_sap_18_mot_HHH_b2_07521_000000141_0001_20_37_H_._HHH_b2_07925_0001_0000200019_0000002_0_0001 (protein)
chain: SSSSTVLERSVEFLLKAVEELLELGNEERARALLEALLRLLEEANDEELTQEVRELLEELSSSSS

Target: il10ra, Q13651
Assay: yeast display titration

Apparent Kd, inactive:
B1 no binding seen
B2 no binding seen
B3 no binding seen
B4 no binding seen
B5 > 276 nM
B6 no binding seen
B7 no binding seen
B8 no binding seen
B9 no binding seen
B10 no binding seen
B11 no binding seen
B12 no binding seen
B13 no binding seen
B14 no binding seen
B15 no binding seen
B16 no binding seen
B17 no binding seen
B18 no binding seen
B19 no binding seen
B20 no binding seen
B21 no binding seen
B22 no binding seen
B23 no binding seen
B24 no binding seen
B25 no binding seen
B26 no binding seen
B27 no binding seen
B28 no binding seen
B29 no binding seen
B30 no binding seen
B31 no binding seen
B32 no binding seen
B33 no binding seen
B34 no binding seen
B35 no binding seen
B36 no binding seen
B37 no binding seen

Pulled one by one from the entries so far (3):
Apparent Kd, inactive:
B30 no binding seen
B19 no binding seen
B3 no binding seen

— PMC10163288
